Experimental data from patent publication US8501992B2, “Hydroxyphenyl sulfonamides as antiapoptotic bcl inhibitors” (Bristol-Myers Squibb Company, priority 2008, dated 2013).
Some entries share one result that the patent states for a list of compounds.

Target: T1, Bcl-b (Homo sapiens, UniProt Q9HD36)
T1 construct: without their C-terminal transmembrane domain; GST; made in house
T1 sequence (Q9HD36 1-182 limits assumed): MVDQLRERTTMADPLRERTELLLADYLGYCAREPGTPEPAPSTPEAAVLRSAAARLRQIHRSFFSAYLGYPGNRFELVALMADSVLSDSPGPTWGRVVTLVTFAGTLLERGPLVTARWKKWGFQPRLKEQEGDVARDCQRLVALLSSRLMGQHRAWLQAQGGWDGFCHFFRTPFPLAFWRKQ
Test: Bclb/Bim fluorescence polarization assay (FPA)
Format: binding
Details: BIM BH3 peptide 5 nM, Bcl-b 40 nM, Ki calculated from FPA data
Source text: Compounds were profiled for their ability to disrupt in vitro binding interactions in fluorescence polarization assays (FPAs) using synthetic fluorochrome-labeled Bcl homology 3 (BH3) peptides derived from BIM [(FAM)-Ahx-[…]-NH2 (SEQ ID NO: 1) (GenBank Accession No. O43521)] or BAK [Ac-GQVGRQLAIIGE-LYS(FAM)-INR-NH2 (SEQ ID NO:2) (GenBank Accession No. Q16611) amino acid sequences and four bacterial recombinant proteins [Bcl-b (GenBank Accession No. Q9HD36), Bcl-2 (GenBank Accession No. P10415), Bcl-Xl (GenBank Accession No. Q07817), Mcl-1 (GenBank Accession No. Q07820)] without their C-terminal transmembrane domain. Proteins were purified from bacterial lysates using their glutathione S-transferase (GST)-tag (Bcl-b, Bcl-2, Mcl-1) or His6-tag (Bcl-Xl) and following one-step affinity chromatography procedures. Dissociation constants (Kd) for peptide binding protein were determined by fluorescence polarization in FPAs measuring BIM BH3 peptide binding Bcl-b, Mcl-1 or Bcl-2 protein or BAK BH3 peptide binding Bcl-Xl protein. The Kd values were generated by fitting the experimental data using a sigmoidal dose-response nonlinear regression model.
Compound inhibitory concentration values, IC50 (50% reduction in fluorescence polarization), were determined using fluorochrome-labeled BH3 peptides and recombinant Bcl proteins in fluorescence polarization assays (FPAs). Compounds diluted in DMSO (0.5 ul) were transferred (in duplicate) to individual wells of a 384-well plate. The fluorochrome-labeled peptide was added followed by recombinant protein addition. Each binding FPA reaction (50 ul) contained BIM BH3 peptide (5 nM) or BAK BH3 peptide (1.5 nM) and Bcl-b (40 nM), Mcl-1 (28 nM), Bcl-2 (11 nM) or Bcl-Xl. (5 nM) protein suspended in assay buffer [20 mM sodium phosphate, pH 7.4, 1 mM EDTA, 50 mM NaCl., 0.05% Pluronic F68]. Reaction mixtures were incubated at ambient temperature for 60 minutes prior to measuring polarization (mP) using an Analyst (LJL, Molecular Devices, Sunnyvale, Calif.) programmed to detect an emission wavelength of 530 nm after excitation (excitation wavelength=485 nm).
Competitive compound inhibition constants (Ki) were calculated using FPA experimental data and a mathematical equation, Ki=[I]50/([L]50/Kd+[P]0/Kd+1), where [I]50 denotes free inhibitor concentration at 50% inhibition, [L]50 is free labeled ligand concentration at 50% inhibition, [P]0 is free protein concentration at 0% inhibition, and Kd is the dissociation constant of the protein-ligand complex.

Ki, ≤ 10 µM:
O=C(c1cc(Cl)cc(Cl)c1O)N(Cc1ccc(F)cc1)Cc1cccc(CN(Cc2ccc(F)cc2)C(=O)c2cc(Cl)cc(Cl)c2O)c1 [Example 23, N-(4-Fluoro-benzyl)-N-(4-{[(4-fluoro-benzyl)-(3,5-dichloro-2-hydroxybenzene)carbamoyl]-methyl}-benzyl)-3,5-dichloro-2-hydroxybenzamide]
O=S(=O)(c1cc(Cl)cc(Cl)c1O)N(Cc1ccc(F)cc1)Cc1cc(Cl)cc(CN(Cc2ccc(F)cc2)S(=O)(=O)c2cc(Cl)cc(Cl)c2O)c1 [Example 24, N-(4-Fluoro-benzyl)-N-(3-chloro-5-{[(4-fluoro-benzyl)-(3,5-dichloro-2-hydroxybenzene)sulfonyl-amino]-methyl}-benzyl)-3,5-dichloro-2-hydroxybenzenesulfonamide]
Cc1ccc(S(=O)(=O)NCc2cccc(CN(Cc3ccc(-c4ccccc4)cc3)S(=O)(=O)c3cc(Cl)cc(Cl)c3O)c2)cc1C(=O)O [Example 25, 5-(N-(3-((N-(Biphenyl-4-ylmethyl)-3,5-dichloro-2-hydroxyphenylsulfonamido)methyl)benzyl)sulfamoyl)-2-methylbenzoic acid]
O=C(c1cc(O)nc(O)c1)N(Cc1ccc(F)cc1)Cc1cccc(CNS(=O)(=O)c2cc(Cl)cc(Cl)c2O)c1 [Example 26, N-(3-((3,5-dichloro-2-hydroxyphenyl-sulfonamido)methyl)benzyl)-N-(4-fluorobenzyl)-2,6-dihydroxyisonicotinamide]
O=C(NCc1cccc(CN(Cc2ccc(C(F)(F)F)cc2)C(=O)c2cc(Cl)cc(Cl)c2O)c1)c1cc(O)nc(O)c1 [Example 27, N-(3-((3,5-dichloro-2-hydroxy-N-(4-(trifluoromethyl)ben-zyl)benzamide)methyl)benzyl)-2,6-dihydroxyisonicotinamide]
O=C(NCc1cccc(CN(Cc2ccc(C(F)(F)F)cc2)S(=O)(=O)c2cc(Cl)cc(Cl)c2O)c1)c1ccc2[nH]c(=O)c(=O)[nH]c2c1 [Example 28, N-(3-((3,5-dichloro-2-hydroxy-N-(4-(trifluoromethyl)ben-zyl)phenylsulfon-amido)methyl)benzyl)-2,3-dioxo-1,2,3,4-tetrahydroquinoxaline-6-carboxamide]
COc1ccc(Cl)cc1S(=O)(=O)NCc1cc(CN(Cc2ccc(F)cc2)S(=O)(=O)c2cc(Cl)cc(Cl)c2O)cc(Oc2ccc(F)cc2)c1 [Example 29, 3,5-dichloro-N-(3-((5-chloro-2-methoxyphenyl-sulfonamido)methyl)-5-(4-fluorophenoxy)benzyl)-N-(4-fluorobenzyl)-2-hydroxybenzenesulfonamide]
CC(C)(C)OC(=O)NCc1cccc(CN(Cc2ccc(F)cc2)S(=O)(=O)c2cc(Cl)cc(Cl)c2O)c1 [Example 30, tert-butyl 3-((3,5-dichloro-N-(4-fluorobenzyl)-2-hydroxyphenyl-sulfonamido)methyl) benzylcarbamate]
CC(C)(C)OC(=O)NCc1cccc(CN(Cc2ccc(-c3ccccc3)cc2)S(=O)(=O)c2cc(Cl)cc(Cl)c2O)c1 [Example 31, tert-butyl 3-((N-(biphenyl-4-ylmethyl)-3,5-dichloro-2-hydroxyphenyl-sulfonamido)methyl) benzylcarbamate]
O=C(NCc1cccc(CN(Cc2ccc(F)cc2)S(=O)(=O)c2cc(Cl)cc(Cl)c2O)c1)c1cc(O)c(O)c(O)c1 [Example 32, N-(3-((3,5-dichloro-N-(4-fluorobenzyl)-2-hydroxyphenyl-sulfonamido)methyl)benzyl)-3,4,5-trihydroxybenzamide]
O=S(=O)(NCc1cccc(CN(Cc2ccc(-c3ccccc3)cc2)S(=O)(=O)c2cc(Cl)cc(Cl)c2O)c1)c1ccc(Oc2ccncc2)cc1 [Example 33, N-(biphenyl-4-ylmethyl)-3,5-dichloro-2-hydroxy-N-(3-((4-(pyridin-4-yloxy)phenylsulfonamido)methyl)benzyl)benzene-sulfonamide]
O=C(O)c1cc(S(=O)(=O)NCc2cccc(CN(Cc3ccc(-c4ccccc4)cc3)S(=O)(=O)c3cc(Cl)cc(Cl)c3O)c2)ccc1O [Example 34, 5-(N-(3-((N-(biphenyl-4-ylmethyl)-3,5-dichloro-2-hydroxyphenyl-sulfonamido)methyl)benzyl)sulfamoyl)-2-hydroxybenzoic acid]
O=C(O)c1cccc(S(=O)(=O)NCc2cccc(CN(Cc3ccc(-c4ccccc4)cc3)S(=O)(=O)c3cc(Cl)cc(Cl)c3O)c2)c1 [Example 35, 3-(N-(3-((N-(biphenyl-4-ylmethyl)-3,5-dichloro-2-hydroxyphenyl-sulfonamido)methyl)benzyl)sulfamoyl)benzoic acid]
NS(=O)(=O)c1cc(S(=O)(=O)NCc2cccc(CN(Cc3ccc(-c4ccccc4)cc3)S(=O)(=O)c3cc(Cl)cc(Cl)c3O)c2)ccc1Cl [Example 36, N1-(3-((N-(biphenyl-4-ylmethyl)-3,5-dichloro-2-hydroxyphenyl-sulfonamido)methyl)benzyl)-4-chlorobenzene-1,3-disulfonamide]
CN(C)C(=O)N(C)c1cccc(S(=O)(=O)NCc2cccc(CN(Cc3ccc(-c4ccccc4)cc3)S(=O)(=O)c3cc(Cl)cc(Cl)c3O)c2)c1 [Example 37, N-(biphenyl-4-ylmethyl)-3,5-dichloro-2-hydroxy-N-(3-((3-(1,3,3-trimethylureido)phenyl-sulfonamido)methyl)ben-zyl)benzenesulfonamide]
O=C(NCc1cccc(CN(Cc2ccc(-c3ccccc3)cc2)S(=O)(=O)c2cc(Cl)cc(Cl)c2O)c1)c1ccc(CNC(CO)CO)cc1 [Example 38, N-(3-((N-(biphenyl-4-ylmethyl)-3,5-dichloro-2-hydroxyphenyl-sulfonamido)methyl)benzyl)-4-((1,3-dihydroxypropan-2-ylamino)methyl)benzamide]
COc1ccc(S(N)(=O)=O)cc1C(=O)NCc1cccc(CN(Cc2ccc(-c3ccccc3)cc2)S(=O)(=O)c2cc(Cl)cc(Cl)c2O)c1 [Example 39, N-(3-((N-(biphenyl-4-ylmethyl)-3,5-dichloro-2-hydroxyphenyl-sulfonamido)methyl)benzyl)-2-methoxy-5-sulfamoylbenzamide]
O=S(=O)(NCc1cccc(CN(Cc2ccc(-c3ccccc3)cc2)S(=O)(=O)c2cc(Cl)cc(Cl)c2O)c1)c1ccc(Oc2cccnc2)cc1 [Example 40, N-(biphenyl-4-ylmethyl)-3,5-dichloro-2-hydroxy-N-(3-((4-(pyridin-3-yloxy)phenylsulfon-amido)methyl)benzyl) benzenesulfonamide]
O=S(=O)(c1cc(Cl)cc(Cl)c1O)N(CCc1ccc(F)cc1)Cc1cccc(CN(Cc2ccc(F)cc2)S(=O)(=O)c2cc(Cl)cc(Cl)c2O)c1 [Example 41, 3,5-dichloro-N-(3-((3,5-dichloro-N-(4-fluorobenzyl)-2-hydroxyphenyl-sulfonamido)methyl)benzyl)-N-(4-fluorophenethyl)-2-hydroxybenzenesulfonamide]
CC(C)CN(Cc1cccc(CN(CCc2ccc(F)cc2)S(=O)(=O)c2cc(Cl)cc(Cl)c2O)c1)S(=O)(=O)c1cc(Cl)cc(Cl)c1O [Example 42, 3,5-dichloro-N-(3-((3,5-dichloro-2-hydroxy-N-isobutylphenyl-sulfonamido)methyl)benzyl)-N-(4-fluorophenethyl)-2-hydroxybenzenesulfonamide]
COc1ccc(Cl)cc1S(=O)(=O)N(Cc1ccc(F)cc1)Cc1cccc(CNC(=O)[C@@H](Cc2ccccc2)NC(=O)OC(C)(C)C)c1 [Example 43, (R)-tert-butyl 1-(3-((5-chloro-N-(4-fluorobenzyl)-2-methoxyphenyl-sulfonamido)methyl)benzylamino)-1-oxo-3-phenylpropan-2-ylcarbamate]
Cc1ccc(S(=O)(=O)NCc2cccc(CN(Cc3ccc(F)cc3)S(=O)(=O)c3cc(Cl)cc(Cl)c3O)c2)cc1 [Example 44, 3,5-dichloro-N-(4-fluorobenzyl)-2-hydroxy-N-(3-((4-methylphenyl-sulfonamido)methyl)benzyl)benzenesulfonamide]
